Broadly, the IC50 is the concentration that inhibits the measured activity by half.

These results are taken from publication PMC6327263, “Evaluation of Novel 3-Hydroxyflavone Analogues as HDAC Inhibitors against Colorectal Cancer” (Advances in Pharmacological Sciences, 2018).

For test [1], the system named is VERO cells. In words: MTT cytotoxicity assay, Vero. The class given is cell-based, African green monkey. The note with it: 48 h, mean ± SEM of three experiments. Here is the method:
(§1) Human colorectal carcinoma cell line (HCT116) and African green monkey kidney epithelial cells (VERO) were obtained from National Centre for Cell Science, Pune, MH, India. For their maintenance, the cells were grown in Dulbecco's Modified Eagle's Medium (DMEM) which was supplemented with 10% fetal bovine serum (FBS) and 1 × penicillin/streptomycin at 37°C in CO2 incubator (NU-5501E/G, NuAire Inc., Plymouth, MN, USA) in a humidified atmosphere of 5% CO2 and 95% air.
(§2) Cytotoxicity for the synthesized analogues was determined using MTT assay. In brief, HCT116 and VERO cells were harvested from the tissue culture flask and seeded in sterile 96 well plates at a density of 5000 cells per well. After overnight adherence, different concentrations of test compounds were added and incubated for 48 h. Next, 50 µl of the MTT reagent (HiMedia Laboratories, Mumbai, India) (2 mg/ml in the sterile phosphate buffer saline (PBS)) was added into each well and incubated for 3 h. The formazan crystals formed were solubilized using 100% dimethyl sulfoxide (DMSO), and the optical density was measured at 540 nm using the microplate reader (ELx800, BioTek Instruments Inc., Winooski, VT, USA).
On the technique in general: Tetrazolium dyes change colour on reduction, which living cells bring about.

Test [2] has as its system HDAC enzyme in HCT116 cells. In words: Whole cell HDAC inhibition assay. The note with it: HCT116, 18 h treatment, mean ± SEM of three experiments. In kind it is cell-based, human. Here is the method: Confluent HCT116 cells were harvested and seeded in 96 well sterile black well plates at a density of 2000 cells per well and incubated overnight. Furthermore, the cells were treated with different concentrations of test compounds for a period of 18 h followed by the addition of […] BOC-Ac-Lys-AMC substrate and incubated for 1 h. […] The reaction was then allowed to proceed for 15 min at 37°C. Finally, the fluorescence intensity was measured at 360 nm excitation and 460 nm emission using a fluorescence microplate reader (FLx800, BioTek Instruments Inc., Winooski, VT, USA).

Test [3] concerns HCT116 cells. Description: MTT cytotoxicity assay, HCT116. In kind it is cell-based, human. The note with it: 48 h, mean ± SEM of three experiments. Here is the method: as §1, §2

For the compound `O=C(CCCCCCC(=O)Nc1ccccc1)NO` [SAHA, reference compound], the results for the IC50 in test [1], in test [2] and in test [3] were 4.6 ± 1.6 µM, 1.2 ± 0.1 µM and 3.1 ± 0.35 µM, respectively.
